Measurements from paper PMC11850616, “Nanomolar inhibitor of the galectin-8 N-terminal domain binds via a non-canonical cation-π interaction” (Communications Chemistry, 2025).
For part of its entries the source gives two or more results. They are shown here; other results are not. An entry can have further records. The records of an entry seem to repeat one measurement (runs, samples, wells or individuals).

Amino acid sequences for entries named in this document (tags omitted).
UniProt P09382, whole entry: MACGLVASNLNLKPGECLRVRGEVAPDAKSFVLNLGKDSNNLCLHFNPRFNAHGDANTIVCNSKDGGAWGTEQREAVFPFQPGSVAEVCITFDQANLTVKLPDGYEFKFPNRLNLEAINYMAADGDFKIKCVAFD

Biological target: Gal-1 (Homo sapiens, UniProt P09382)
Test: competitive fluorescence polarisation assay, Gal-1
Details: ratio of FP Kd values

Gal-1 selectivity ratio Kd (Gal-1)/Kd (Gal-8N): about 13 and 12.5
SMILES: C#CCO[C@@H]1[C@@H](OCc2nc3ccc(C(=O)O)cc3n2C)[C@@H](O)[C@@H](CO)O[C@@H]1Sc1ccc(Cl)c(Cl)c1 [Compound 11]
